This is an account of results in patent publication US20220324970A1.

Experiment [1] concerns the target recombinant dimeric IgA2 construct. The experiment in a line: BLI: mpIgR alone binding to immobilized IgA. A general note: In BLI a coated tip is dipped into the sample, and binding shifts an interference pattern.
Experiment [2] shares this target. The experiment in a line: BLI: mpIgR pre-complexed with VHH2 binding to immobilized IgA.

No constants are given. Whether binding was seen depends on the method and setting. Some entries that bind do so weakly or less than the wild type.

B1: mouse pIgR extracellular domain (ECD) (receptor)
chain: KSPIFGPQEVSSIEGDSVSITCYYPDTSVNRHTRKYWCRQGASGMCTTLISSNGYLSKEYSGRANLINFPENNTFVINIEQLTQDDTGSYKCGLGTSNRGLSFDVSLEVSQVPELPSDTHVYTKDIGRNVTIECPFKRENAPSKKSLCKKTNQSCELVIDSTEKVNPSYIGRAKLFMKGTDLTVFYVNISHLTHNDAGLYICQAGEGPSADKKNVDLQVLAPEPELLYKDLRSSVTFECDLGREVANEAKYLCRMNKETCDVIINTLGKRDPDFEGRILITPKDDNGRFSVLITGLRKEDAGHYQCGAHSSGLPQEGWPIQTWQLFVNEESTIPNRRSVVKGVTGGSVAIACPYNPKESSSLKYWCRWEGDGNGHCPVLVGTQAQVQEEYEGRLALFDQPGNGTYTVILNQLTTEDAGFYWCLTNGDSRWRTTIELQVAEATREPNLEVTPQNATAVLGETFTVSCHYPCKFYSQEKYWCKWSNKGCHILPSHDEGARQSSVSCDQSSQLVSMTLNPVSKEDEGWYWCGVKQGQTYGETTAIYIAVEERTRGSSHVNPTDANARAKVALEEEVVDSSISEKENKAIPNPGPFANEREIQNVGDQAQENRASGDAGSADGQSRSSSSKHHHHHH
On to B1, for which the binding result in experiment [1] and in experiment [2] was “binds” each time.
